For one molecule, normalised response results are on record in the supplement of paper PMC4862054.

Most entries show no effect beyond the scatter of the controls.

Holding throughout (test): normalised response (% of control), CellTox Green; higher = less cell death (100 = DMSO, 0 = benzethonium chloride kill control)
Holding throughout (conditions): incubation time: 72 h

In one assay the test system is MDA-MB-436. As to the method: (§1)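 DSRT, 72 h incubation, CellTox Green / CellTiter-Glo readout. Signal is normalised to DMSO and benzethonium chloride controls. Value is the normalised response at the lowest tested concentration.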
The next assay relates to CAL-148. The method, then:
as §1

The next assay concerns MDA-MB-453. As to the method:
as §1

The next assay concerns Hs578T. As to the method:
as §1

A further assay concerns MDA-MB-231. As to the method: as §1
In another assay the test system is CAL-51. As to the method:
as §1

For another assay, the system named is HCC1143. The method, then:
as §1

In another assay the test system is HCC1937. As to the method: as §1
The next assay has as its system HDQ-P1. The method, then: as §1
The test system of a further assay is DU-4475. The method, then: as §1
Another assay concerns BT-549. The method, then: as §1
Another assay has as its system CAL-85-1. The method, then:
as §1

In another assay the test system is BT-474. As to the method:
as §1

The next assay concerns HCC1599. As to the method: as §1
The test system of the next assay is MCF-10A. The method, then:
as §1

The subject of another assay is CAL-120. As to the method:
as §1

For another assay, the system named is MFM-223. As to the method:
as §1

The subject of a further assay is MDA-MB-468. As to the method: as §1

With `CS(=O)(=O)c1ccc(C(=O)Nc2ccc(Cl)c(-c3ccccn3)c2)c(Cl)c1` [Vismodegib] (1 nM), the normalised response in the assay with MDA-MB-436 worked out at 78%; in the assay with CAL-148 it was 75.6%; with MDA-MB-453, 103%; in the assay on Hs578T, 81.7%; in the assay on MDA-MB-231, 93.9%; with CAL-51, 117%. Besides, the normalised response was found to be 80.5% in the assay with HCC1143; 72.9% in the assay on HCC1937; 51.3% in the assay with HDQ-P1; 96.4% in the assay with DU-4475; 98.1% in the assay with BT-549; 97.5% with CAL-85-1. The normalised response in the assay on BT-474 was 84.5%; in the assay with HCC1599, 88.2%; in the assay with MCF-10A it was 103%; in the assay with CAL-120, 98.3%; with MFM-223, 101%; in the assay on MDA-MB-468, 104%.
